# In the supplement of paper PMC8291772:
# The chains behind the UniProt entries cited, without tags or fusion partners. Where a name states a change or a piece, a line headed by the entry shows the natural chain unless it says otherwise.
# UniProt P06526: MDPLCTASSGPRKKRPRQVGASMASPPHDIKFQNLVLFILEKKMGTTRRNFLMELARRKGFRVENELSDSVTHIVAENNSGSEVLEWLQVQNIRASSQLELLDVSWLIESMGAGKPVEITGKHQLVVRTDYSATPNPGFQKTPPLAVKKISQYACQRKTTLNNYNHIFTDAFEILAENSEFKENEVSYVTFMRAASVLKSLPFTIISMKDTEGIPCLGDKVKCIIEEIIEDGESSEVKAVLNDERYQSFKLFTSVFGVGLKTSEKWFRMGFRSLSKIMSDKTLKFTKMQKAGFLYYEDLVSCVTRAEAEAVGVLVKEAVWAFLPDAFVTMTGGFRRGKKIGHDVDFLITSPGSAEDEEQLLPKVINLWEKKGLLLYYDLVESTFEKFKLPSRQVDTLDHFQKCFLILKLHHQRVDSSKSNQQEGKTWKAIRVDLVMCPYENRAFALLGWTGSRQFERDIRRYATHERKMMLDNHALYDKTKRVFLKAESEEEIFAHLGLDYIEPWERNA
# ± gives the standard error. The list shows a part of the results. Repeats in this data set agree poorly, so a single value says little.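 The library held every possible DNA sequence from one to five nucleotides long. General ability to extend was judged against a limit of the blocked-version mean plus three standard deviations, and the probe detects only chains extended by at least seven dT.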
# Target: terminal deoxynucleotidyl transferase (calf thymus) (UniProt P06526)
# Experiment: TdT poly-dT extension signal (Cy3 hybridisation fluorescence, uncapped minus capped) (fluorescence a.u.); higher = more efficient initiation of TdT extension
# Settings: initiator chemistry: D-DNA, free 3'-OH (5'-tethered via HEG linker)
# Procedure: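 All mono- to pentamer initiator sequences were made by photolithographic in situ synthesis (reverse 5'->3' direction) on glass on a single hexaethylene glycol linker. Each was made in uncapped and DMTr-dT-capped versions, about 11 replicate features each. Arrays were extended with calf thymus TdT (0.2 U/uL) and 100 uM dTTP in TdT buffer with 0.25 mM CoCl2 for 120 min at 37 C, then hybridised with an rA18-Cy3 probe at 4 C and scanned at 532 nm. The value is the mean uncapped signal minus the mean capped signal of the same sequence.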
row,Sequence,TdT poly-dT extension signal
1,ATAT,3310 ± 330
2,TATAG,3030 ± 500
3,TTGG,3610 ± 380
4,TAATG,3780 ± 360
5,CGAAA,3180 ± 590
6,TGACC,3260 ± 220
7,TTTAG,4010 ± 440
8,CAGGT,3740 ± 380
9,CCTT,3660 ± 260
10,GGGAG,4310 ± 510
11,TTATC,3090 ± 220
12,TCAA,3760 ± 590
13,CCCTA,3510 ± 440
14,TGTG,3200 ± 320
15,TCGAT,3740 ± 340
16,TACCT,2930 ± 320
17,CCCG,3790 ± 430
18,AGTCC,2470 ± 250
19,TGAT,3910 ± 600
20,GGGGC,5320 ± 900
21,TGGGC,3640 ± 320
22,TCAGC,3160 ± 390
23,GTCCC,2290 ± 280

row,Sequence,TdT poly-dT extension signal
1,CCGCC,3520 ± 280
2,TCAAT,3450 ± 430
3,TAGAA,4110 ± 400
4,ATCTA,3750 ± 300
5,TGAAG,3840 ± 840
6,TGGCC,3130 ± 350
7,TTATT,4470 ± 380
8,CATGC,3190 ± 320
9,GCGGA,4460 ± 440
10,ATTTC,2610 ± 280
11,GATTG,3190 ± 580
12,CACAC,3090 ± 390
13,TCAAA,3940 ± 560
14,CATAA,4550 ± 330
15,GCGAA,4890 ± 820
16,TTCGA,4180 ± 760
17,CTGGC,3500 ± 350
18,GTTGT,3960 ± 320
19,CGCGG,5130 ± 650
20,GGTG,3990 ± 490
21,AGGGC,3550 ± 380
22,GGAGA,4670 ± 540
23,GGCTC,2560 ± 220

row,Sequence,TdT poly-dT extension signal
1,ACCTT,3770 ± 260
2,ATAAT,3860 ± 390
3,AAACG,4370 ± 500
4,AAAGT,2930 ± 430
5,TTGGG,4830 ± 320
6,TTAGC,3700 ± 330
7,AAATG,4140 ± 240
8,AAGAC,2560 ± 400
9,TATAC,2720 ± 240
10,CTACG,3390 ± 680
11,GTAAT,3710 ± 310
12,ATTAC,2680 ± 380
13,GGGTC,3380 ± 380
14,TATCT,3080 ± 300
15,ATAGT,3790 ± 330
16,CTAAA,3790 ± 410
17,GTGG,3420 ± 440
18,ACAGA,3390 ± 460
19,GAAT,3620 ± 380
20,TATGT,3920 ± 300
21,AGCG,3140 ± 450
22,ATAGA,3670 ± 420
23,AGGGT,4010 ± 300

row,Sequence,TdT poly-dT extension signal
1,TCGC,3310 ± 310
2,AGGTC,2810 ± 320
3,TTGGT,4360 ± 430
4,GCGA,2810 ± 480
5,CTGT,3650 ± 340
6,CTTA,3560 ± 240
7,AGAAT,2880 ± 550
8,TTCAC,3450 ± 270
9,TTAA,2920 ± 380
10,CACGT,4340 ± 590
11,TGGTA,5260 ± 1000
12,CGAGC,3040 ± 350
13,CGCAC,3570 ± 250
14,GGCGG,3670 ± 460
15,TTGT,3800 ± 190
16,ACTG,4030 ± 320
17,GTCC,2620 ± 330
18,AAGTG,3120 ± 410
19,GCCCA,3560 ± 280
20,GTTGA,4240 ± 620
21,AACCC,2900 ± 320
22,CGTGG,3360 ± 370
23,TACG,2910 ± 230

row,Sequence,TdT poly-dT extension signal
1,CGGAC,2980 ± 380
2,ATATG,3240 ± 330
3,TCCGT,3880 ± 360
4,ACTAG,4430 ± 800
5,TTACA,4130 ± 440
6,CATT,3060 ± 420
7,CTCC,3330 ± 280
8,AGTAA,3250 ± 540
9,AAGCA,4090 ± 310
10,CTCGG,3930 ± 380
11,CTCA,3890 ± 390
12,GCGTG,3780 ± 300
13,GCTCG,3850 ± 650
14,ATCC,2650 ± 320
15,GAGCG,4010 ± 340
16,TAGC,3070 ± 380
17,CCCGG,3930 ± 510
18,ACTGC,3140 ± 400
19,CTATG,2250 ± 540
20,TCGAC,2960 ± 380
21,GTCGA,4040 ± 640
22,CACC,3310 ± 330
23,GTTAT,2860 ± 380

row,Sequence,TdT poly-dT extension signal
1,GGGT,3680 ± 340
2,GAGA,2940 ± 490
3,TGTGT,3410 ± 390
4,AAGCT,2970 ± 260
5,TAGA,3580 ± 400
6,GCCTA,3640 ± 330
7,TGAAC,3910 ± 240
8,GGCCA,3570 ± 370
9,ATCGT,3480 ± 320
10,AAAAA,4150 ± 610
11,ACTTA,3580 ± 410
12,GTGTC,3550 ± 180
13,CTTAG,3830 ± 470
14,GATAT,3790 ± 380
15,CTGGG,4590 ± 760
16,CAACT,3310 ± 300
17,AATA,3780 ± 280
18,AGATG,3350 ± 370
19,ATTTT,3910 ± 360
20,AGAGA,3250 ± 450
21,CGAGT,4070 ± 500
22,CTCGA,4210 ± 580

# Exported with tabs: entries from further up.
row	Sequence	TdT poly-dT extension signal
3	TGTGT	3410 ± 390
17	AATA	3780 ± 280
18	AGATG	3350 ± 370
